No constants are given. Whether binding was seen depends on the method and setting. In cells and extracts the contact can be indirect. Some entries that bind do so weakly or less than the wild type. Sequences can lack the tags named with a protein.

Sequences of proteins named here, by UniProt entry; tags and fusion partners are left off. Residues count along the entry.
UniProt Q8R4U0, residues 29-2559: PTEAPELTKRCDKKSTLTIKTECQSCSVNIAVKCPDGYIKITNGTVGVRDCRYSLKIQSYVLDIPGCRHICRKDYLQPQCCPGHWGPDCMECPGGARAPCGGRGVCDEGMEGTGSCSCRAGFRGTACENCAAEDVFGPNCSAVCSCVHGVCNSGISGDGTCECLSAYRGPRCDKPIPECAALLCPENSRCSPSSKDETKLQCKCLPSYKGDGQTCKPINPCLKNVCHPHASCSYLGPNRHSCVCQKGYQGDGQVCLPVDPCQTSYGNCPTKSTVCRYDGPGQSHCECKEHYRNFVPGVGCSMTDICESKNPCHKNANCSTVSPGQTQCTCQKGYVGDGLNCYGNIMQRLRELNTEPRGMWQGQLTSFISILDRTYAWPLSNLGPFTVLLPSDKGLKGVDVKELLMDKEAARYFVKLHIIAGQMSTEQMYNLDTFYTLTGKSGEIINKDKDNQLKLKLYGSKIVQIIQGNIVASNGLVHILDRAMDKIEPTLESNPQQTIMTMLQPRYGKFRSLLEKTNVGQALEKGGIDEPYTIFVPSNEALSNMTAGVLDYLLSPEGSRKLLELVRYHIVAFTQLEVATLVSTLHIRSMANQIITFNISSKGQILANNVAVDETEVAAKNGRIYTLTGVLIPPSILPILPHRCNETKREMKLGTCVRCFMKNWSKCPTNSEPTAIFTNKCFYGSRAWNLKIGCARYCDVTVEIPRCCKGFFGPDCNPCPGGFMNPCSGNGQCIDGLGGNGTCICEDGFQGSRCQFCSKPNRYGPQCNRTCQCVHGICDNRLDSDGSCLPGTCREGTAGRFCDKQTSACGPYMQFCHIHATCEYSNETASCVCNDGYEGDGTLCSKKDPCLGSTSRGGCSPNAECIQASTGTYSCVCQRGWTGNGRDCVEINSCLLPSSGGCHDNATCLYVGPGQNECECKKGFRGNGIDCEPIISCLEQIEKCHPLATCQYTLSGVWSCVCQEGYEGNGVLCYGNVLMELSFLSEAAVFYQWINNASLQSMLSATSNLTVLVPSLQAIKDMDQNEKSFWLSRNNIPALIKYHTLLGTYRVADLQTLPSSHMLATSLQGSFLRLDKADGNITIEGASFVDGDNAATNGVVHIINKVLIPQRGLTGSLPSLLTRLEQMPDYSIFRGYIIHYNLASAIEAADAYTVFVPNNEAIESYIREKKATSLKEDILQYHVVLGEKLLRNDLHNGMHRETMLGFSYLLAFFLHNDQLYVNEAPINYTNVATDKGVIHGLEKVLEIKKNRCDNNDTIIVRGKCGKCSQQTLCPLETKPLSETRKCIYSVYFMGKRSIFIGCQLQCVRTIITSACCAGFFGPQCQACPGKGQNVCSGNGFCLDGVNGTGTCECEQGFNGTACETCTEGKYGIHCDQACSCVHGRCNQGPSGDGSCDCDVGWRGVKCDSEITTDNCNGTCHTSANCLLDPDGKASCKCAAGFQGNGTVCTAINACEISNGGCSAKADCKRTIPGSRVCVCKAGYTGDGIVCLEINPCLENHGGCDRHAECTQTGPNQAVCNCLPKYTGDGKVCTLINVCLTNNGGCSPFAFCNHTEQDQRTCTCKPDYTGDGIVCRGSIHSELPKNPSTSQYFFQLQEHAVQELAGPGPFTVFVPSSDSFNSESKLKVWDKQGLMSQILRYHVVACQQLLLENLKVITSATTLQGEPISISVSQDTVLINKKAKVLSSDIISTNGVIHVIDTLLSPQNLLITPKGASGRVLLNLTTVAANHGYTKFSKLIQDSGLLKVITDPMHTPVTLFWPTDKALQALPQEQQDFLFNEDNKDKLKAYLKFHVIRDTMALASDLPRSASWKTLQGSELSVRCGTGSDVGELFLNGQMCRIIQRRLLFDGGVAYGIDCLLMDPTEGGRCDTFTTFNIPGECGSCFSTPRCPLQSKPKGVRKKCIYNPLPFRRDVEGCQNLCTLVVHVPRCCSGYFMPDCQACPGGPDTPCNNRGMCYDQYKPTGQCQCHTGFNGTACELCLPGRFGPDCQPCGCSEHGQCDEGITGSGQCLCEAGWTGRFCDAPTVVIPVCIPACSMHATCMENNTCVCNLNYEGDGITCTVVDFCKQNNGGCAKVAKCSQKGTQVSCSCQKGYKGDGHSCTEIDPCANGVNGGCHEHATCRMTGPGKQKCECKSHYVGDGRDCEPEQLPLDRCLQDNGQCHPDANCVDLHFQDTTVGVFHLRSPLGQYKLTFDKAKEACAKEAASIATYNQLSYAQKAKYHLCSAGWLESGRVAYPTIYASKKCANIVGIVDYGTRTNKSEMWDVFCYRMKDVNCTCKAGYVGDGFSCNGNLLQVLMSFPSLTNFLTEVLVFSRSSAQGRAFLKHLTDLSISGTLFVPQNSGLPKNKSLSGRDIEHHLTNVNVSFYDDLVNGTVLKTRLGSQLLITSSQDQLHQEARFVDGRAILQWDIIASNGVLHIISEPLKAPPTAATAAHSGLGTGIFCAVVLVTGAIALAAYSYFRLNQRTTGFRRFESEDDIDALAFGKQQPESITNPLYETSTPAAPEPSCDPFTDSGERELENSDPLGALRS
UniProt Q8WWQ8, residues 20-2551: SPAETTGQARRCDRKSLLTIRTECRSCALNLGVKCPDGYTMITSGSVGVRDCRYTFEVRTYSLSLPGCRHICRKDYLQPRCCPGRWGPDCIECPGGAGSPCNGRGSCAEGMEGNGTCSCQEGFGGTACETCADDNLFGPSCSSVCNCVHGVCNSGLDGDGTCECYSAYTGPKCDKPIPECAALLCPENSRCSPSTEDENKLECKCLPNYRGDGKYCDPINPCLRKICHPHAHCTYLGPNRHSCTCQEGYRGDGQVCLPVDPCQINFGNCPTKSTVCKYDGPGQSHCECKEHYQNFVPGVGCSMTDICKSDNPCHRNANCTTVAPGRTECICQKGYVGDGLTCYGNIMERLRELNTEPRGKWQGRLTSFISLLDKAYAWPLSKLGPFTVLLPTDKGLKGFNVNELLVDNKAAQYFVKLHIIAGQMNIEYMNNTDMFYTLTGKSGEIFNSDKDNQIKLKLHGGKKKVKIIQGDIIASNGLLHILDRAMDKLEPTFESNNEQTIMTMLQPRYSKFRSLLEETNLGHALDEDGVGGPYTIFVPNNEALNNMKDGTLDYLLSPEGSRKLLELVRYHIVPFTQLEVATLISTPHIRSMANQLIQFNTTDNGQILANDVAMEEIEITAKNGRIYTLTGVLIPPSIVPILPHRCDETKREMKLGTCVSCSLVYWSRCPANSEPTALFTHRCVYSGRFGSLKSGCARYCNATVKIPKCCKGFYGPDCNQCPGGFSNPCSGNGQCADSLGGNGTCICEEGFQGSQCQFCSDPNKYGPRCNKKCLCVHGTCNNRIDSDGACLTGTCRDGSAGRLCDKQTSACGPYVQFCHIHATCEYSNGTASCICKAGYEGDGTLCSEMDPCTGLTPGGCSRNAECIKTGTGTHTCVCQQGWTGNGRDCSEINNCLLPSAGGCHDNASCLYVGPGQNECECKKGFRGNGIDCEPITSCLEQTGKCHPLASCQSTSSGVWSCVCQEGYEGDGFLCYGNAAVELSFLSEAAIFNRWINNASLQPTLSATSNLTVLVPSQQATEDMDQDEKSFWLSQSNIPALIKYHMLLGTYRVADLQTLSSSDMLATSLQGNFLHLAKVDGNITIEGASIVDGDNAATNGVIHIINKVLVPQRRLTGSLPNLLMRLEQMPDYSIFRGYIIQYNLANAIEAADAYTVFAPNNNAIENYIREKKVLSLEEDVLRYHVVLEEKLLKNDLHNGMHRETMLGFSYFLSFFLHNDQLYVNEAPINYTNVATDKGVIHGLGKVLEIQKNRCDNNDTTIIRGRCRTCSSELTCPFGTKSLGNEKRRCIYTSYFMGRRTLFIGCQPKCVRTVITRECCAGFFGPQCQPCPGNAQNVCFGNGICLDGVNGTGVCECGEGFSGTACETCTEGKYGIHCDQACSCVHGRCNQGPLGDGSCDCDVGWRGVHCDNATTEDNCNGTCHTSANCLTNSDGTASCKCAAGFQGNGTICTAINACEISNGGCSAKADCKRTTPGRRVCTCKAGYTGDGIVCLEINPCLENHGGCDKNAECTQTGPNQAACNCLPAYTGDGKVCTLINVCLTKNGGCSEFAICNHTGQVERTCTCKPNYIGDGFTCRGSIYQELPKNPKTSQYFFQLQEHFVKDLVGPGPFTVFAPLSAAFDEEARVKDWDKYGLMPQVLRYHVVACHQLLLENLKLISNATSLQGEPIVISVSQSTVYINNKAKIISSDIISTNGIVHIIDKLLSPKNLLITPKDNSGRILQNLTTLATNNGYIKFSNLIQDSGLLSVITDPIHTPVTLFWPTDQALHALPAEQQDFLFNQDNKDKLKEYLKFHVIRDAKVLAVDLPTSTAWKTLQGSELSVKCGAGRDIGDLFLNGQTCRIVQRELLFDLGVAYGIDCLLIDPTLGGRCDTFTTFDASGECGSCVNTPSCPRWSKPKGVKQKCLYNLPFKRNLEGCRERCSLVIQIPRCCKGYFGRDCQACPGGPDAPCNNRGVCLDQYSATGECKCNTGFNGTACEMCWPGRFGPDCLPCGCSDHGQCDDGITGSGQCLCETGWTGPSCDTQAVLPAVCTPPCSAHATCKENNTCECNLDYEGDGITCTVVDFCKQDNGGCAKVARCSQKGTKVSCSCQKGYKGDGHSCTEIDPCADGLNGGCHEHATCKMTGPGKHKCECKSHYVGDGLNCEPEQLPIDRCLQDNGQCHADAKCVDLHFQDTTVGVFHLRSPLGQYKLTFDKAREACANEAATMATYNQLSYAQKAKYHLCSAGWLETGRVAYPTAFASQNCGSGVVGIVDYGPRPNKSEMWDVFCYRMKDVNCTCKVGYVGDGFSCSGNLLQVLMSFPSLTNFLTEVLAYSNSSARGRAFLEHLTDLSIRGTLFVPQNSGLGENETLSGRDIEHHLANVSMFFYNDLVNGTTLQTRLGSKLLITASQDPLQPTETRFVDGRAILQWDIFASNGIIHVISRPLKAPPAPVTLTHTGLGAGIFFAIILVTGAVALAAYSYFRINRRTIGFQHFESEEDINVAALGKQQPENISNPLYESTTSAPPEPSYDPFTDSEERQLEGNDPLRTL

Drawing on paper PMC6203814, this text covers binding for two substances.

Experiment [1] deals with T1, Full length human Flag-BAI3-mVenus (human) (UniProt O60242).
T1 sequence: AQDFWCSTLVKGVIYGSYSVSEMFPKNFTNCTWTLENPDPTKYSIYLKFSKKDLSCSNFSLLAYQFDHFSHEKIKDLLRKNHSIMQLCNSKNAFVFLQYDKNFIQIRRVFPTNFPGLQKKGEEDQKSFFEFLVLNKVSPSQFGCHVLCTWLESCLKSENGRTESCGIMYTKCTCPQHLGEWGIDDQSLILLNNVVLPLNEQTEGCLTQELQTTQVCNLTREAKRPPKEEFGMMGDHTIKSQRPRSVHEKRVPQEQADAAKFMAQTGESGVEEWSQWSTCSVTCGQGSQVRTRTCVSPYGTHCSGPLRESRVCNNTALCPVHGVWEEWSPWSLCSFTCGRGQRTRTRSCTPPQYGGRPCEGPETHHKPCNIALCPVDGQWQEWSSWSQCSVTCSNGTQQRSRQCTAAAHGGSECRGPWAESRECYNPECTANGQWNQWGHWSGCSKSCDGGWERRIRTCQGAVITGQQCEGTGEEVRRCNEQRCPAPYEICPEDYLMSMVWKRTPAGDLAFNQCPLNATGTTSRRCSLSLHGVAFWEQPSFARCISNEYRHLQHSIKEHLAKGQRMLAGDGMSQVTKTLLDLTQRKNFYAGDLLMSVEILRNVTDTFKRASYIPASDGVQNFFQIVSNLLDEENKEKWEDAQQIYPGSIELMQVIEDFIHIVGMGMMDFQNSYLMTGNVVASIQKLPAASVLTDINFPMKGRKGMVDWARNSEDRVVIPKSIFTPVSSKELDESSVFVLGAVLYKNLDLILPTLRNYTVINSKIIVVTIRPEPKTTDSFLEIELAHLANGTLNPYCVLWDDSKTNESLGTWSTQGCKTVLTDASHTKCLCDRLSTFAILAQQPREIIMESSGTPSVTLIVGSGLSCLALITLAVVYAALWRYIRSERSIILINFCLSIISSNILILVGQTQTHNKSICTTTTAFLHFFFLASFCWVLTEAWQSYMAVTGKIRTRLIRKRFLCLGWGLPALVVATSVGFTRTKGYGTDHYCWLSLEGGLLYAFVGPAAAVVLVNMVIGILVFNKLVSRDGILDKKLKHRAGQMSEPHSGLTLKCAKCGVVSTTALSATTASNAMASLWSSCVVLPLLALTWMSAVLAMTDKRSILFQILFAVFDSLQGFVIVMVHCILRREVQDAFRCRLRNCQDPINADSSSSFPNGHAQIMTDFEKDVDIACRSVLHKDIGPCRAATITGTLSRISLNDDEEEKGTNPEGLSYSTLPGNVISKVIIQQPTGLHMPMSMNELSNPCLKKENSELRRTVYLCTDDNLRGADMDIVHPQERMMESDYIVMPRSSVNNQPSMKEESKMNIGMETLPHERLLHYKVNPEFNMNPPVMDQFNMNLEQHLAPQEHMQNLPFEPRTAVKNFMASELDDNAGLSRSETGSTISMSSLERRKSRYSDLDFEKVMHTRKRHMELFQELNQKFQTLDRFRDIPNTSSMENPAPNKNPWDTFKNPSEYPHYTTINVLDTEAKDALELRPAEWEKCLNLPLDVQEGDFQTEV
Briefly: proximity ligation; C2C12 transfected with tracer amounts of Flag-BAI3, differentiated 24 h, fixed; anti-Flag (M2) and anti-Stabilin-2 antibodies, Duolink PLA.

Experiment [2] addresses T1, Full length human Flag-BAI3-mVenus (human). Nature of the experiment: co-IP; HEK293T or C2C12 cells expressing V5-Stabilin-2 and a Flag-BAI3 form, lysed in 150 mM NaCl, 50 mM Tris pH 7.5, 1% Nonidet-P40; 500 μg extract, antibody and Protein-A agarose 90 min, three washes.

On to “endogenous Stabilin-2 (from UniProt Q8R4U0 29-2559) (receptor)”, for which the binding entry in experiment [1] is on record as “binds”.

Regarding “full length V5-Stabilin-2 (from UniProt Q8WWQ8 20-2551) (receptor)”, the binding entry in experiment [2] is “binds”.
